## Binding screen against folded nucleic acids

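Each compound is printed as two spots on a slide made to bind it covalently, so it has no test concentration; the read-out is fluorescence of the bound, labelled oligonucleotide. For the PreQ1, TPP and SAM-II riboswitches the laboratory earlier reported (doi:10.1038/s41467-019-09493-3) 1 µM RNA, 2 h, and a rule that included a mean Z-score above 3 (spot signal-to-noise against the whole library), a score well above that on a control array, and duplicate spots agreeing (coefficient of variation under 100). The data file gives only the calls; its cut-offs may differ, and compounds hitting several targets are kept. A missing hit is not proof of no binding, and a hit is not a measured affinity.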
A compound is marked hit if it was called a hit and no hit if it was screened but was not.
Compounds were drawn at random from those tested, without regard to their results.
A target missing from an entry has no call listed here.

Targets, with sequences 5′ to 3′:
T1: PreQ1 riboswitch RNA pseudoknot, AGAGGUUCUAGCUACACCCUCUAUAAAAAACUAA. From B. subtilis. Hit rate about 0.7% of about 24,000 compounds.
T2: TPP riboswitch RNA three-way junction, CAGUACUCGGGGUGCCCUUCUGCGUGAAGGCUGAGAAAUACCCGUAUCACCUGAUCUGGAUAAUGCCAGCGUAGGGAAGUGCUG. Hit rate about 0.7% of about 24,000 compounds.
T3: SAM-II riboswitch RNA pseudoknot, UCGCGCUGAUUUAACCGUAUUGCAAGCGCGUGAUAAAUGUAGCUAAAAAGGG. Hit rate about 1% of about 21,000 compounds.

Calls for CCOC(=O)N[C@@H]1CC[C@@H]2[C@@H](C1)C[C@H]1C(=O)O[C@H](C)[C@H]1[C@@H]2C=Cc1ccc(-c2cccc(F)c2)cn1 are T1: no hit; T2: no hit; T3: no hit. For COc1ccc(Cc2nccc3cc(OC)c(OC)cc23)cc1OC the calls were T1: no hit; T2: no hit; T3: no hit. Calls for COC(=O)CCc1ccc(C)c(N)c1 are T1: no hit; T2: no hit; T3: no hit. With CC(C)c1cc(C(=O)N2CCNCC2C(=O)NCc2ccncc2)on1 (stereo unspecified) the screen gave T1: no hit; T2: no hit; T3: no hit. For C[C@@H](O)CNS(=O)(=O)c1cccc(C(=O)NCCCc2ccccn2)c1 the calls were T1: no hit; T2: no hit; T3: no hit. With CCOc1ccc(Cc2ncnn2CC(O)CC)cc1 (stereo unspecified) the screen gave T1: no hit; T2: no hit; T3: no hit.

Calls for Cc1ccc(OCC(O)Cn2c(C)nc3ccccc32)cc1C (stereo unspecified) are T1: no hit; T2: no hit. CCCN(CCC)c1nc(Cl)nc(NCCN2CCOCC2)n1 was scored T1: no hit; T2: no hit; T3: no hit. With Cc1nc(C2=C(N)N(c3ccc4c(c3)OCO4)CC2=O)sc1C the screen gave T1: no hit; T2: no hit. Cc1cc(C)c(NC(=O)Cn2nnc(C(=O)Nc3ccc(F)cc3)c2N)c(C)c1 was scored T1: no hit; T2: no hit; T3: no hit. Calls for CCCc1cc(C(=O)NC(C)c2nnc(N)s2)[nH]n1 (stereo unspecified) are T1: no hit; T2: no hit; T3: no hit. O=C(N[C@@H](c1ccccc1)[C@@H]1CCCCN1)c1cccc(C(F)(F)F)c1Cl was scored T1: no hit; T2: no hit; T3: no hit.

COc1ccc(-c2cc(Nc3ccccc3Br)nc(C)n2)cc1 was scored T1: no hit; T2: no hit. Calls for CCOc1cc(CNCCc2ccccc2F)ccc1OC are T1: no hit; T2: no hit; T3: no hit. CN1CCN([C@H]2CCN(C(=O)c3ccc(Cl)s3)C[C@H]2CCCO)CC1 was scored T1: no hit; T2: no hit; T3: no hit. Calls for O=C1N(CCc2ccccc2)CCCC1(O)CNCCn1cccn1 (stereo unspecified) are T1: no hit; T2: no hit; T3: no hit. For CCc1ccc(N2CCN(CC(O)COc3ccc(C(C)=O)cc3OC)CC2)cc1 (stereo unspecified) the calls were T1: no hit; T2: no hit; T3: no hit. With CCC=CC[C@H]1C(=O)CC[C@@H]1CC(=O)OC the screen gave T1: no hit; T2: no hit; T3: no hit.

With NC1(N2SC(S)=C3CCCC=C32)CCCCC1 the screen gave T1: no hit; T2: no hit; T3: no hit. For N#CC1=C(N)OC2=C(C(=O)CC(c3ccccc3)C2)C1c1cccnc1 (stereo unspecified) the calls were T1: no hit; T2: no hit; T3: no hit. For CC(=O)c1cnc(Nc2cccc(C(F)(F)F)c2)nc1C the calls were T1: no hit; T2: no hit; T3: no hit. For NCCc1nnc(SCc2cccc(Cl)c2)o1 the calls were T1: no hit; T2: no hit; T3: no hit. With CCCc1cc(C(=O)N2CCc3ncnc(NCCO)c3CC2)ccn1 the screen gave T1: no hit; T2: no hit; T3: no hit. With CN(CCO)C[C@@H]1CN(C(=O)c2ccc(N(C)C)cc2)C[C@@H]1CO the screen gave T1: no hit; T2: no hit; T3: no hit.

N#CC1=C(N)OC2=C(C(=O)CC(c3ccccc3)C2)C1c1ccsc1 (stereo unspecified) was scored T1: no hit; T2: no hit; T3: no hit. Calls for COc1cc(Nc2nc3ccccc3nc2NS(=O)(=O)c2ccc(NC(=O)c3ccc(C)c(OC)c3)cc2)cc(OC)c1 are T1: no hit; T2: no hit; T3: no hit. With O=C(NCCO)c1ccc(CSc2nc3sc4c(c3c(=O)[nH]2)CCCC4)cc1 the screen gave T1: no hit; T2: no hit; T3: no hit. CCCCCCNc1ncnc2sc(C)c(C)c12 was scored T1: no hit; T2: no hit. Cl.Nc1ccc(Cn2ccc3c4c(N)nc(N)nc4ccc32)cc1 was scored T1: no hit; T2: hit; T3: hit. Calls for Cc1ccc(N2C(=O)SC(Nc3ccccc3C(=O)O)C2=O)cc1C (stereo unspecified) are T1: no hit; T2: no hit; T3: no hit.

For CCCc1nc(CNC2CCSCC2)cs1 the calls were T1: no hit; T2: no hit; T3: no hit. Calls for Sc1nnc(CNc2ccc(I)cc2)n1-c1ccccc1 are T1: no hit; T2: no hit; T3: no hit. Calls for Cn1c(N2CCOCC2)nc2cc(C(=O)N3CCOCC(O)C3)ccc21 (stereo unspecified) are T1: no hit; T2: no hit; T3: no hit. For CCSc1ncc(C#N)c(N)n1 the calls were T1: no hit; T2: no hit. For Cc1nnc(Sc2ccc(Cl)cc2N)n1C the calls were T1: no hit; T2: no hit; T3: no hit. Nc1cc(O)nc(CCNC(=O)c2cccc(C3CCCNC3)c2)n1 (stereo unspecified) was scored T1: no hit; T2: no hit; T3: no hit.

For COc1c(Cl)cc2c([nH]c3cnccc32)c1NC(=O)c1cccnc1C the calls were T1: no hit; T2: no hit; T3: no hit. For O=[N+]([O-])c1ccc2nc3[nH]c4ccccc4nc-3c2c1 the calls were T1: no hit; T2: no hit; T3: no hit. With Cc1ncc(CO)c2c1Oc1nc(-c3ccccc3F)[nH]c(=S)c1C2 the screen gave T1: no hit; T2: no hit; T3: no hit. Cc1ccc(Nc2c(-c3cccs3)nc3cnccn23)cc1 was scored T1: no hit; T2: no hit; T3: no hit. For O=C(c1ccc2ncsc2c1)N1CC[C@H](N2CCOCC2)[C@H](CCCO)C1 the calls were T1: no hit; T2: no hit; T3: no hit. For O=C(O)Cc1sc(Nc2ccc(F)cc2)nc1-c1ccc(F)cc1 the calls were T1: no hit; T2: no hit; T3: no hit.

Source: the ROBIN nucleic acid binder screens (doi:10.1002/anie.202211358).